PubChem BioAssay AID743121 | NCATS | 2013
Purpose: 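Genes whose silencing strengthens cell killing by camptothecin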 (primary screen). Cells: MDA-MB-231 cells, a human breast cancer line. Reagent: single siRNA against human genes, 20 nM siRNA (0.8 pmol per well). Time to read-out: 120 h (drug added 48 h after transfection, read 72 h later). Treatment: camptothecin 20 nM (about EC30) for 72 h; vehicle 0.1% DMSO in parallel plates. Read-out: 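Cell viability by ATP luminescence (CellTiter-Glo) as % of non-targeting siRNA wells, and the log2 ratio of viability without drug over viability with camptothecin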. Direction: log2 vehicle/camptothecin viability: higher = stronger sensitisation to camptothecin. Call rule: 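Active genes have an RSA gene-level p-value below 0.001, computed from the ratios of their separate siRNAs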.
Shown is a random part of about 26,000 reagents. Of all reagents, 167 (0.63%) were called active. 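Calls are per gene from RSA p-values that are not deposited; an individual active-marked siRNA can sensitise only weakly.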 Not all columns of the deposit are shown.

What did the screen give for RCHY1 (ring finger and CHY zinc finger domain containing 1) [SID164457618]?
log2 vehicle/camptothecin viability: -0.248; Call: inactive

What is on record for RCHY1 (ring finger and CHY zinc finger domain containing 1) [SID164457619]?
log2 vehicle/camptothecin viability: -0.18; Call: inactive

For RCHY1 (ring finger and CHY zinc finger domain containing 1) [SID164457623], how do the results read?
log2 vehicle/camptothecin viability: -0.333; Call: inactive

For RCHY1 (ring finger and CHY zinc finger domain containing 1) [SID164457625], what does the deposit list?
log2 vehicle/camptothecin viability: -0.267; Call: inactive

With TRIM43 (tripartite motif containing 43) [SID164569191], what does the deposit list?
log2 vehicle/camptothecin viability: -0.122; Call: inactive

What did the screen give for TRIM43 (tripartite motif containing 43) [SID164569192]?
log2 vehicle/camptothecin viability: -0.159; Call: inactive

What did the screen give for TRIM43 (tripartite motif containing 43) [SID164569197]?
log2 vehicle/camptothecin viability: 0.23; Call: inactive

What is on record for TRIM43 (tripartite motif containing 43) [SID164569198]?
log2 vehicle/camptothecin viability: 0.364; Call: inactive

Looked up above.
Value of TRIM43 (tripartite motif containing 43) [SID164569197] in “log2 vehicle/camptothecin viability”: 0.23
Under “Call”, TRIM43 (tripartite motif containing 43) [SID164569198] reads inactive
Value of TRIM43 (tripartite motif containing 43) [SID164569192] under “Call”: inactive

Next entries follow.
Which result is listed for PDILT (protein disulfide isomerase like, testis expressed) [SID164586551]?
log2 vehicle/camptothecin viability: 0.0819; Call: inactive

What did the screen give for PDILT (protein disulfide isomerase like, testis expressed) [SID164586553]?
log2 vehicle/camptothecin viability: -0.662; Call: inactive

For PDILT (protein disulfide isomerase like, testis expressed) [SID164586554], how do the results read?
log2 vehicle/camptothecin viability: -0.263; Call: inactive

What did the screen give for PDILT (protein disulfide isomerase like, testis expressed) [SID164586556]?
log2 vehicle/camptothecin viability: -0.204; Call: inactive

What did the screen give for ZMYND11 (zinc finger MYND-type containing 11) [SID164413330]?
log2 vehicle/camptothecin viability: -0.159; Call: inactive

Which result is listed for ZMYND11 (zinc finger MYND-type containing 11) [SID164413333]?
log2 vehicle/camptothecin viability: -0.458; Call: inactive

With ZMYND11 (zinc finger MYND-type containing 11) [SID164413338], what was measured?
log2 vehicle/camptothecin viability: -0.38; Call: inactive

With ZMYND11 (zinc finger MYND-type containing 11) [SID164413339], what was measured?
log2 vehicle/camptothecin viability: -0.494; Call: inactive
